Consider 42 sequences from article PMC7819943, “Rice protein-binding microarrays: a tool to detect cis-acting elements near promoter regions in rice”.

Some of the results follow.

This test concerns the target T1, OsSMF1 (Oryza sativa, UniProt Q6ZLB0 1-436).
T1 sequence: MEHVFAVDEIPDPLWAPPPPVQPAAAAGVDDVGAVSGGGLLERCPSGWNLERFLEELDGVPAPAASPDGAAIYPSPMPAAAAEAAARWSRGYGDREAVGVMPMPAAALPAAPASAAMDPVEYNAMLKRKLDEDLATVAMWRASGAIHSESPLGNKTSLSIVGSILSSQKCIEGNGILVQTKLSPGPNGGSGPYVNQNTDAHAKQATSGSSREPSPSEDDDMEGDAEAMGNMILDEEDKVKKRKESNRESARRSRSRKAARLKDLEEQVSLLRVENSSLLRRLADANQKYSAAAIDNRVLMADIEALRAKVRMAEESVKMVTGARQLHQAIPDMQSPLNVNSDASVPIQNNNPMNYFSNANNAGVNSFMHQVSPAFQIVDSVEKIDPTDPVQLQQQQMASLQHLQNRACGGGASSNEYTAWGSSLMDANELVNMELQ
As to the kind of experiment: protein-binding microarray (RPBM); PBS, 2% BSA, 51.3 ng/ul salmon testes DNA, 50 uM zinc acetate, 200 nM TF, 25 C, 1 h; high values mean tight binding. Conditions: protein: recombinant; tags: N-terminal polyhistidine and DsRed monomer fusion (pET32a); chain copies: 2; label: CyDye5-dUTP incorporated in the synthesized complementary strand; 3' TTTTT single-stranded linker to array surface; dsDNA, one strand shown. An outline of the steps:
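Polyhistidine-tagged DsRed fusions of transcription factors, joined at the N-terminus, were expressed in E. coli BL21-CodonPlus and isolated on Ni–NTA. They were incubated at 200 nM for 1 h at 25 °C on a custom Agilent array, double-stranded and BSA-blocked, in PBS with 2% BSA, salmon testes DNA and 50 µM zinc acetate. The binding signal is per-feature fluorescence intensity (arbitrary units) read on an Axon 4000B scanner after washing.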
In the case of “GACGAGTCGATCGATCTCGACTCCGTCACACCTGCTGCCGCGGAGTCACCTAGTGCAG”, the binding signal was 3170 fluorescence intensity (a.u.).

As for “GAAGCCACAGTCGGAGTTGTTCAAACATGACTGTTCCAGCCGGAGTCACCTAGTGCAG”, the binding signal was 3660 fluorescence intensity (a.u.).

Turning to “CCGTCTACCATGGTACCACCGCGCGCGTCACGTTGCAACGCGGAGTCACCTAGTGCAG”, the binding signal is 3200 fluorescence intensity (a.u.).

For the sequence “TCGCGCGCGTCGCATGAATGTTCCACACGCCGATCATGACCGGAGTCACCTAGTGCAG”, the binding signal is 3890 fluorescence intensity (a.u.).

On to “TCTAAACTTGTACTCTAATAGTATTCAACAATCCACGTCACGGAGTCACCTAGTGCAG”, for which the binding signal was 12100 fluorescence intensity (a.u.).

For “AGTGCCAGTTTTCCTCCTACGTAATCTAAGCTAGCCAGGTCGGAGTCACCTAGTGCAG”, the binding signal is 3230 fluorescence intensity (a.u.).

Consider “AATTCAAGCATTGTATACGTCATTAGTCCGATTCTTTGTACGGAGTCACCTAGTGCAG”, for which the binding signal is 5570 fluorescence intensity (a.u.).

For “CGGTTGTGCATTCTTAGGATGGCAAGAAGTAGAATGATATCGGAGTCACCTAGTGCAG”, the binding signal was 33100 fluorescence intensity (a.u.).

On to “AGGGTTGAGAGGTGAGTGGCGGCGGAAGGAATCCACAAGTCGGAGTCACCTAGTGCAG”, for which the binding signal was 3720 fluorescence intensity (a.u.).

In the case of “ACGGATCATGTATACTACTACCATGATGATGAGTCATTTTCGGAGTCACCTAGTGCAG”, the binding signal is 6300 fluorescence intensity (a.u.).

In the case of “ATCGGATTATCAGTTCCGGTCACAATTCGATCAATAAACGCGGAGTCACCTAGTGCAG”, the binding signal was 12800 fluorescence intensity (a.u.).

“GGTTAATTATATGTGTGCGCGCCATGTTTGTCATTGTTAACGGAGTCACCTAGTGCAG”: the binding signal is 3330 fluorescence intensity (a.u.).

Consider “ACTTTAAACCCACGTTGTCAGTGGCTGCACGATGGGCCAACGGAGTCACCTAGTGCAG”, for which the binding signal is 3340 fluorescence intensity (a.u.).

Take “CGACACATTTTGCATTGATGACATGGTTAACTATACGACACGGAGTCACCTAGTGCAG”: the binding signal is 5720 fluorescence intensity (a.u.).

Turning to “CGTCCCGAGAGGAATGCGGTGACGCAGGCGTCGCCGTTATCGGAGTCACCTAGTGCAG”, the binding signal is 4400 fluorescence intensity (a.u.).

“GGAGGGCGTGTCGTGCGACGCCGCCACGGGGAGGGTCGTCCGGAGTCACCTAGTGCAG”: the binding signal is 3170 fluorescence intensity (a.u.).

As for “ATGTAACCCAACAAAAGGAGTGTAGAGTCATTGGCATACCCGGAGTCACCTAGTGCAG”, the binding signal was 3910 fluorescence intensity (a.u.).

Consider “CACGACCACCTCTGAGGTCATTATTTCCATTTTGGCCCAGCGGAGTCACCTAGTGCAG”, for which the binding signal was 25100 fluorescence intensity (a.u.).

For “GCACCATCCCAGGTCGCCATGACGTGGTCGCAGCTAGTTTCGGAGTCACCTAGTGCAG”, the binding signal was 6370 fluorescence intensity (a.u.).

Regarding “TGGAAATAATCAGTGCTTCTTCGTCATGAAGCCTACTTACCGGAGTCACCTAGTGCAG”, the binding signal was 3540 fluorescence intensity (a.u.).

With “ATAAGTCGGTCTGACTGATTGCGTCATGTAACAAACATTCCGGAGTCACCTAGTGCAG”, the binding signal is 9050 fluorescence intensity (a.u.).

As to “ATCCTCCGCCGCCGCCTCACCTCCTCCGCCACCGCGCTCGCGGAGTCACCTAGTGCAG”, the binding signal is 4020 fluorescence intensity (a.u.).

Turning to “GCTACAACGCAGCCGTAACCCAGGTGTCTGAACAGGACCGCGGAGTCACCTAGTGCAG”, the binding signal was 30200 fluorescence intensity (a.u.).

As for “CGTCTTTTCGGCCCAATGGGCTAAACCGAACACGGTGGCGCGGAGTCACCTAGTGCAG”, the binding signal is 3900 fluorescence intensity (a.u.).

For the sequence “CGCACCATGACGTCATCCAACCTCCTCCTCCTCCGCTTAACGGAGTCACCTAGTGCAG”, the binding signal is 11400 fluorescence intensity (a.u.).

For “ACAACCCCTCTATATATACTTGTGGCTGTCCGATTTGAGGCGGAGTCACCTAGTGCAG”, the binding signal is 3360 fluorescence intensity (a.u.).

In the case of “GTCGCCGTCGCCGTCGTGCGCCGCGATCATCCTGACGCAGCGGAGTCACCTAGTGCAG”, the binding signal is 4390 fluorescence intensity (a.u.).

On to “TCCCTGGCACGTCTCCACAACCTTTGAAGTTCACCCGTGCCGGAGTCACCTAGTGCAG”, for which the binding signal was 3760 fluorescence intensity (a.u.).

As for “TTGTCCAGGTCCACTGCTGGAACTGCAAGCAGATGCCATCCGGAGTCACCTAGTGCAG”, the binding signal is 22500 fluorescence intensity (a.u.).

As for “AACCTTTTCGCGCGCTTTTGACATCATCCTTTTGCTTGGCCGGAGTCACCTAGTGCAG”, the binding signal was 3480 fluorescence intensity (a.u.).

On to “TTAGTGTGCGCGCATAAATAACTCTTTTGCGTGCACAGAACGGAGTCACCTAGTGCAG”, for which the binding signal was 3400 fluorescence intensity (a.u.).

As for “AGAATAAAATCAAGGAGGCCCGGATGAGCGCCACGTGGCGCGGAGTCACCTAGTGCAG”, the binding signal was 24600 fluorescence intensity (a.u.).

As for “TGATCGCTACAGAGGTTACGCTATACAACCGCAGTTAAGCCGGAGTCACCTAGTGCAG”, the binding signal is 15700 fluorescence intensity (a.u.).

For “ACATGTGGCTGAAGTGTGCCTGCGTCGCCCGCCGTGTGCCCGGAGTCACCTAGTGCAG”, the binding signal was 3180 fluorescence intensity (a.u.).

Consider “GCTGACAGCTGCTCCACATCGGCGCCCAAACCCTAACCTCCGGAGTCACCTAGTGCAG”, for which the binding signal is 18000 fluorescence intensity (a.u.).

For “ATAGGAAGGGAAGCAACGGAGGAGGAGATCGGCTGGTGGTCGGAGTCACCTAGTGCAG”, the binding signal was 7740 fluorescence intensity (a.u.).

In the case of “ATACGACCCACACCCTTCTCTCCAACCTCAAGAAAACTATCGGAGTCACCTAGTGCAG”, the binding signal was 29200 fluorescence intensity (a.u.).

As to “GGGCCTCGCCCACGCCACGCACGCCAATCCAACCAGCGTCCGGAGTCACCTAGTGCAG”, the binding signal was 6340 fluorescence intensity (a.u.).

Consider “CCACAAAGCAACAACATCACCACCACATCATCCCTCTACCCGGAGTCACCTAGTGCAG”, for which the binding signal is 3420 fluorescence intensity (a.u.).

“GTTGCGAGTGGAGCGGATCGGTGACGTGGCAATGGTTCTGCGGAGTCACCTAGTGCAG”: the binding signal is 22300 fluorescence intensity (a.u.).

For the sequence “CTTGCACTCAACCACGCCTTGATCTCCCACACGCGAGCCACGGAGTCACCTAGTGCAG”, the binding signal was 31400 fluorescence intensity (a.u.).

With “CTTGTTGTGTTCTACACTTGGTGATGCTGCTGCTTCTGCTCGGAGTCACCTAGTGCAG”, the binding signal was 3690 fluorescence intensity (a.u.).
